We go through 14 sequences from publication doi:10.1101/2023.08.11.553033.

Data set [1] addresses T1, Pdr3p DBD (Saccharomyces cerevisiae) (UniProt P33200).
T1 sequence (looked up): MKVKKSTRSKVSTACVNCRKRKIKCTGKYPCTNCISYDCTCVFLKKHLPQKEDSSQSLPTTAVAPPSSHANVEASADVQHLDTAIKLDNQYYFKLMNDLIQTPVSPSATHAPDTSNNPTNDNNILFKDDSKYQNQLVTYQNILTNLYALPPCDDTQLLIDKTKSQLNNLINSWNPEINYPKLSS
Briefly: fluorescence polarization. To be noted: residues 1-184. (In general: In fluorescence polarisation assays a small probe gives low polarisation when free and higher when bound to something large.)

Data set [2] has as its target T2, Pdr1p DBD (Saccharomyces cerevisiae) (UniProt P12383).
T2 sequence (looked up): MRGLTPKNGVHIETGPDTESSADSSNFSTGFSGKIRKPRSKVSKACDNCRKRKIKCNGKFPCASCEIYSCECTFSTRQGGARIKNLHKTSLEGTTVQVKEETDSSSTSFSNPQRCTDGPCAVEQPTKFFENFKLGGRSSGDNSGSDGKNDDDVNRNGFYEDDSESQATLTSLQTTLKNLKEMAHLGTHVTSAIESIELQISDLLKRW
The data set is described as follows: fluorescence polarization. To be noted: residues 1-207.

Data set [3] addresses T1, Pdr3p DBD (Saccharomyces cerevisiae). The data set is described as follows: competition fluorescence polarization. To be noted: vs FAM-PDR5_4; residues 1-184.
[4] abbreviates: type D weaker, slightly tighter than half site (229 nM).

For at least one entry, the source does not settle the construct or the ends of the probe. For part of these data: The comparison behind a weaker result is the experiment's own reference, which may not be listed here. At least one verdict rests on a figure or table, not on a statement of the authors. Tags and fusion partners may be left off the protein sequences shown.

Turning to “AAACGTCCGTGGAGAACC (double strand) [PDR5_4 18mer]”, the Kd in data set [1] (derived: 1.44-fold tighter than PDR5_2) came out at 197 nM; in data set [2] it was 118 nM.

Regarding “CAGTTTCCGCGCAAGAAT (double strand) [Fig 4 type C PDRE (CAGTTTCCGCGCAAGAAT)]”, the binding result in data set [1] (type C strongest class) was “binds”; in data set [2] (type C weaker than A and B) it was “binds more weakly”.

Turning to “TTTATTCCGTGGAAAAGG (double strand) [Fig 4 type B PDRE (TTTATTCCGTGGAAAAGG)]”, the binding result in data set [1] and in data set [2] was “binds” in each case.

“CGGACTCCGCGCAAGAAT (double strand) [Fig 4 type C PDRE (CGGACTCCGCGCAAGAAT)]”: the binding result in data set [1] (type C strongest class) was “binds”; in data set [2] (type C weaker than A and B), “binds more weakly”.

Regarding “ATGTCTCCGCGGAACTCT (double strand) [PDR5_1 18mer]”, the Kd in data set [1] worked out at 173 nM; in data set [2] (derived: PDR5_3 binds 1.76-fold tighter), 92 nM.

Consider “ACCTTTCCGCGCATATAC (double strand) [Fig 4 type C PDRE (ACCTTTCCGCGCATATAC)]”, for which the binding result in data set [1] (type C strongest class) is recorded as “binds”; in data set [2] (type C weaker than A and B), “binds more weakly”.

For “GGCACTCCGCGGGGCCCG (double strand) [Fig 4 type D PDRE (GGCACTCCGCGGGGCCCG)]”, the binding result in data set [1] (type D among weakest) and in data set [2] (setting [4]) was “binds more weakly” in each case.

Regarding “GTGATTCCGTGGAAAGGT (double strand) [PDR5_2 18mer]”, the Kd in data set [1] turned out to be 284 nM; in data set [2] (derived: 1.33-fold tighter than PDR5_4), 89 nM.

With “TCTGCTCCGTGGAACTAA (double strand) [Fig 4 type B PDRE (TCTGCTCCGTGGAACTAA)]”, the binding result in data set [1] and in data set [2] was “binds” in each case.

As to “AAACTTCCGTGGAAAACC (double strand) [PDR5_4 G4T G14A (paper numbering)]”, in data set [3], the binding result was “binds”.

On to “ATTTCTCCGCGGAATTAC (double strand) [Fig 4 type A PDRE (ATTTCTCCGCGGAATTAC)]”, for which the figures for the binding result in data set [1] (type A among weakest) and in data set [2] (type A: highest affinity class) were “binds more weakly” and “binds”, respectively.

Consider “CTCTTTCCGCGGAATCGC (double strand) [PDR5_3 18mer]”, for which the Kd in data set [1] (derived: PDR5_1 binds 1.12-fold tighter) was determined as 194 nM; in data set [2], 52 nM.

In the case of “TTGTTTCCGCGGAGCTGC (double strand) [Fig 4 type A PDRE (TTGTTTCCGCGGAGCTGC)]”, the binding result in data set [1] (type A among weakest) is on record as “binds more weakly”; in data set [2] (type A: highest affinity class) it was “binds”.

For “TCGCTTCCGCGGGATGCC (double strand) [Fig 4 type D PDRE (TCGCTTCCGCGGGATGCC)]”, the binding result in data set [1] (type D among weakest) and in data set [2] (setting [4]) was “binds more weakly” throughout.

By Kd is commonly meant the concentration at which binding is half-saturated. Low values mean a tighter complex, high ones a looser complex.
